In paper PMC4351203:
Where two headings read alike, the source gives them in different places. Results are given in words; binding and its absence hold for the method and conditions named. Binding seen in cells or lysates may run through a third protein. Some results given as binding are weak or reduced against the parent protein; the word gives no strength. For some of these results: Sequences can lack the tags named with a protein. Each block holds one molecule with its values, some of them ahead of it.

Chains of the proteins cited; added tags and fusions are not shown.
UniProt Q8VI36: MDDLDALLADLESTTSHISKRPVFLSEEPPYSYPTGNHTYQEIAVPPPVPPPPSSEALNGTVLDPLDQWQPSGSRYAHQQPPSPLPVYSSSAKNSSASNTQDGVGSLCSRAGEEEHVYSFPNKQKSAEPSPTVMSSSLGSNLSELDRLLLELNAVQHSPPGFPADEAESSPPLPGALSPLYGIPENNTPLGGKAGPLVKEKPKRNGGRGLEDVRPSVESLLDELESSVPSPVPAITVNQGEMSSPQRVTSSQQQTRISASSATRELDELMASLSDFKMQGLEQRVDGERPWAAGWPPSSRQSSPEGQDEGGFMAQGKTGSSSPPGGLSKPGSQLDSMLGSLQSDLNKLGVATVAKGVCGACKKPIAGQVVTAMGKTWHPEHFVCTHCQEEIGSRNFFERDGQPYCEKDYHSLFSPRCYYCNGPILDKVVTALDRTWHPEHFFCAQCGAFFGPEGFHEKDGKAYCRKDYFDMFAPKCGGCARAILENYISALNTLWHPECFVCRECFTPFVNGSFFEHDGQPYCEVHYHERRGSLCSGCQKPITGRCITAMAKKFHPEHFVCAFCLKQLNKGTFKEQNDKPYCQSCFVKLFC
UniProt O43294: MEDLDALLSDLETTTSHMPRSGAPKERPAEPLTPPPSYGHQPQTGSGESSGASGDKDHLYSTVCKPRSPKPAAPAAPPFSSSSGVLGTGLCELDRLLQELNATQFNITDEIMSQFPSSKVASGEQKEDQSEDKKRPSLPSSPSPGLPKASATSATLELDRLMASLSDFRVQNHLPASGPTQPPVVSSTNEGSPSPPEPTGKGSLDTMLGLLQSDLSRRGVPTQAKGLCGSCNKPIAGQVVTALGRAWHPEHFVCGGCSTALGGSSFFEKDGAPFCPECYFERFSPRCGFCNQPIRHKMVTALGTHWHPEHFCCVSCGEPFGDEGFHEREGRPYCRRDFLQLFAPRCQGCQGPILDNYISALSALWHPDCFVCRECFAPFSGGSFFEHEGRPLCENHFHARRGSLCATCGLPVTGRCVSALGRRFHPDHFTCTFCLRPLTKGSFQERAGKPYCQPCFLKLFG
UniProt Q62219: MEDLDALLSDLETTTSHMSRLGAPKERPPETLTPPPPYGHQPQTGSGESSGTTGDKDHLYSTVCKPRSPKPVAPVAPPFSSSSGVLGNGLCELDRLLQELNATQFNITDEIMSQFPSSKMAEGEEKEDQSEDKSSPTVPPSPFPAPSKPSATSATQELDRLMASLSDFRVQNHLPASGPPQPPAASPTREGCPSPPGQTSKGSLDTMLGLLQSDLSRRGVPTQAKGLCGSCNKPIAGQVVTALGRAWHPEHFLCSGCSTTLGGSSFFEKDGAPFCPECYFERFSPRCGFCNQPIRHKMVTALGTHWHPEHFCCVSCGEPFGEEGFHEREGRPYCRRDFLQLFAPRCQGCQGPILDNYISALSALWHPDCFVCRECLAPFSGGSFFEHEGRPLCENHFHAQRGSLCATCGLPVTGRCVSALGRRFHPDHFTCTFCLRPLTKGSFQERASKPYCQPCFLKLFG
UniProt P49023: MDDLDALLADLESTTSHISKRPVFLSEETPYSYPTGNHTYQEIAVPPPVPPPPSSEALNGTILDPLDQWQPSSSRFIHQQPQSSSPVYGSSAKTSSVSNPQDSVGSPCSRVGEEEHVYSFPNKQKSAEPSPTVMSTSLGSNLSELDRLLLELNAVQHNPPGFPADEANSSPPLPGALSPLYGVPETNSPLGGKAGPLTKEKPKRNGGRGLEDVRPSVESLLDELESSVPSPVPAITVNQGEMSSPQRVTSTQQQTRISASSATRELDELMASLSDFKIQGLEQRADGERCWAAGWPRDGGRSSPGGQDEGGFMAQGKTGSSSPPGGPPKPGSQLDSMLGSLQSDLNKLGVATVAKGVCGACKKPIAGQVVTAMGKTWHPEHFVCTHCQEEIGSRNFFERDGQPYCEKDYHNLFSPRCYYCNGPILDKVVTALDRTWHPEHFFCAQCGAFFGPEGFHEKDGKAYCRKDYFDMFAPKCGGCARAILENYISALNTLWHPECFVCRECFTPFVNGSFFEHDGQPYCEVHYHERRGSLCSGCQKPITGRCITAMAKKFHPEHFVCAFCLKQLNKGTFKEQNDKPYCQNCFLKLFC

How the values were obtained:
[1] = biological target: T1, FLAG-tagged Git1-Y554F (rat) (UniProt Q9Z272); test: co-IP; extracts of HEK293T cells expressing FLAG-tagged Git1 constructs, treated with 100 μM pervanadate for 15 min; lysis buffer 20 mM Tris-HCl pH 7.4, 1% NP-40, 150 mM NaCl, 10 mM NaF, 1 mM orthovanadate; anti-FLAG M2 magnetic beads 3 h; eluted with FLAG peptides; Western blot of endogenous Hic-5 or paxillin
T1 sequence: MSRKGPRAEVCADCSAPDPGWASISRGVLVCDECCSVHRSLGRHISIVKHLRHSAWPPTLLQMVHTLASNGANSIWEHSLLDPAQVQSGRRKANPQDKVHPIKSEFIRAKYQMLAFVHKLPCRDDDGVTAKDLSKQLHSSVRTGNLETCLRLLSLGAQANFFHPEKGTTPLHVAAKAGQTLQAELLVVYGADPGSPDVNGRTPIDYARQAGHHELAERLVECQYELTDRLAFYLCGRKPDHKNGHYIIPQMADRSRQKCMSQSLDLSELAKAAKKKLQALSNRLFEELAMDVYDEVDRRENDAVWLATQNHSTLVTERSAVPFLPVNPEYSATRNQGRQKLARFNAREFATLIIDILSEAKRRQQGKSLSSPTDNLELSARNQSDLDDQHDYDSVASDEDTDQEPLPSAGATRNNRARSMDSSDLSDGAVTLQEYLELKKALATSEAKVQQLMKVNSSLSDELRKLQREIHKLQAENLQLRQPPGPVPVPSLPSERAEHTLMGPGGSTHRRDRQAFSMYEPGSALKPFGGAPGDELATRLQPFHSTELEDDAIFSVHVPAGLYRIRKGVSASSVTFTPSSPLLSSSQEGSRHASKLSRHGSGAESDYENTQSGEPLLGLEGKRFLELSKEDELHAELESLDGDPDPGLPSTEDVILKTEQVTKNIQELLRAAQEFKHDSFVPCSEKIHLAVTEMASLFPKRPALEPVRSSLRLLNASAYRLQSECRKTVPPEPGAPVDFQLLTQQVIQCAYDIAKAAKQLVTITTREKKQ

[2] = biological target: T1, FLAG-tagged Git1-Y554F (rat); test: co-IP; extracts of HEK293T cells co-expressing FLAG-tagged Git1 proteins with a Myc-tagged partner or YFP-fused Git1; cells treated with 100 μM pervanadate or vehicle for 15 min; anti-FLAG beads; eluted by boiling in SDS sample buffer; Western blot with anti-Myc or anti-GFP
[3] = biological target: T2, FLAG-tagged Git1 (WT) (rat) (UniProt Q9Z272); test: as above
T2 sequence: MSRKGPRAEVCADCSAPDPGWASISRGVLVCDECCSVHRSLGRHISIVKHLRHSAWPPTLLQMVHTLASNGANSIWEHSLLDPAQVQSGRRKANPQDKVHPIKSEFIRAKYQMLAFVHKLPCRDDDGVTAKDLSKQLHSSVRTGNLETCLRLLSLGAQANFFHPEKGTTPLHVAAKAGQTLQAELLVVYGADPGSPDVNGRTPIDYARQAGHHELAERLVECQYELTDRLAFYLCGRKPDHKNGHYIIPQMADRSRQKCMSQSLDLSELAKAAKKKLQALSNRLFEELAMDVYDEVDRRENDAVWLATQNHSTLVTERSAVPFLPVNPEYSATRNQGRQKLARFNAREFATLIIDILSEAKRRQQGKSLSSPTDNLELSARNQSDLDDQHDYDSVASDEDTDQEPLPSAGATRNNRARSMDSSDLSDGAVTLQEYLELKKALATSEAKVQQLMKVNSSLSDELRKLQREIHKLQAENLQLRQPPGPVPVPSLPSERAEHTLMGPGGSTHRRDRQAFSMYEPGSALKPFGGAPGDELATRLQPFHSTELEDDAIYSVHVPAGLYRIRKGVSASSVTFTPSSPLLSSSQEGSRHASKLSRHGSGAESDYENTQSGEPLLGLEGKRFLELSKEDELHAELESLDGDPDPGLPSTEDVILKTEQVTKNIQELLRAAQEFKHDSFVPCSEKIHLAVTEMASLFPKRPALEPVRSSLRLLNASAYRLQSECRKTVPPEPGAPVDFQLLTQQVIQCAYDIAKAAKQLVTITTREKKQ

[4] = biological target: T3, FLAG-tagged Git1-Y554D (rat) (UniProt Q9Z272); test: as above
T3 sequence: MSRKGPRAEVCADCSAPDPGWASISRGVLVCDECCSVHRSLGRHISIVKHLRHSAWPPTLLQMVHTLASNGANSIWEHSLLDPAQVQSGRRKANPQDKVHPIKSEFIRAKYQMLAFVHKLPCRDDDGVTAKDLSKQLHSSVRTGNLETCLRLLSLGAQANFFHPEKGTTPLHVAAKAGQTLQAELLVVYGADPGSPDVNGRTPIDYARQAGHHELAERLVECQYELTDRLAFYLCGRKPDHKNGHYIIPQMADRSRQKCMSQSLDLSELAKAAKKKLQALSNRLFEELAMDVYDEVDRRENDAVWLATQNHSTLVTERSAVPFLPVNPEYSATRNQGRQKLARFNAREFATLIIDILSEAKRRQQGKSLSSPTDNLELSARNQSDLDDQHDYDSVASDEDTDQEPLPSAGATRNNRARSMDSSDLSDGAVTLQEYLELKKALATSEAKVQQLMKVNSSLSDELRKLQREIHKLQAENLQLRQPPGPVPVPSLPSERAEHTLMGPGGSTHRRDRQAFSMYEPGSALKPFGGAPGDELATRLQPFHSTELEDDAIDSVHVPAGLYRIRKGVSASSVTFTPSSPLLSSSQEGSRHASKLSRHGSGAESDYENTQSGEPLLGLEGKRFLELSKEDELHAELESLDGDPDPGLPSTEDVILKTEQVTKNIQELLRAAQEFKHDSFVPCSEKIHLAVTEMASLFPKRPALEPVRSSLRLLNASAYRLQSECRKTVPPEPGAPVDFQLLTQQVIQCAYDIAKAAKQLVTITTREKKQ

[5] = biological target: T2, FLAG-tagged Git1 (WT) (rat); test: as above; remark: listed apart in the source
[6] = biological target: paxillin (endogenous, mouse cerebral cortex synaptosomes) (mouse (endogenous in cerebral cortex)) (UniProt Q8VI36); test: co-IP; synaptosome extracts of the cerebral cortex of wild-type and Ptprz-deficient mice, precleared with protein G Sepharose; mouse monoclonal anti-paxillin-coated beads, 4°C; Western blot with rabbit anti-Git1

Molecule: Hic-5 (endogenous, HEK293T) (from UniProt O43294 1-461)
binding [1]: binds

Molecule: Myc-tagged Hic-5 (from UniProt Q62219 1-461)
binding [2]: binds | binding [3]: binds | binding [4]: binds

B1: Myc-tagged βPix (protein, UniProt Q9ES28-5 1-782)
chain: MNSAEQTVTWLITLGVLESPKKTISDPEVFLQASLKDGVVLCRLLERLLPGTIEKVYPEPRNESECLSNIREFLRACGASLRLETFDANDLYQGQNFNKVLSSLVTLNKVTADIGLGSDSVCARPSSHRIKSFDSLGSQSSHSRTSKLLQSQYRSLDMTDNTNSQLVVRAKFNFQQTNEDELSFSKGDVIHVTRVEEGGWWEGTHNGRTGWFPSNYVREIKPSEKPVSPKSGTLKSPPKGFDTTAINKSYYNVVLQNILETEHEYSKELQSVLSTYLRPLQTSDKLSSANTSYLMGNLEEISSFQQVLVQSLEECTKSPEAQQRVGGCFLSLMPQMRTLYLAYCANHPSAVSVLTEHSEDLGEFMETKGASSPGILVLTTGLSKPFMRLDKYPTLLKELERHMEDYHPDRQDIQKSMTAFKNLSAQCQEVRKRKELELQILTEPIRSWEGDDIKTLGSVTYMSQVTIQCAGSEEKNERYLLLFPNLLLMLSASPRMSGFIYQGKLPTTGMTITKLEDSENHRNAFEISGSMIERILVSCTSQQDLHEWVEHLQKQTKVTSVSNPTIKPHSVPSHTLPSHPLTPSSKHADSKPVALTPAYHTLPHPSHHGTPHTTISWGPLEPPKTPKPWSLSCLRPAPPLRPSAALCYKEDLSKSPKTMKKLLPKRKPERKPSDEEFAVRKSTAALEEDAQILKVIEAYCTSAKTRQTLNSTWQGTDLMHNHVLADDDQSSLDSLGRRSSLSRLEPSDLSEDSEYDSIWTAHSYRMGSASRKSCCSYISHQN
binding [5]: binds

The next lines start with the values.

binding [1]: binds
Molecule: paxillin (endogenous, HEK293T) (from UniProt P49023 1-591)

binding [6]: binds
B2: Git1 (endogenous, mouse cerebral cortex synaptosomes) (protein, UniProt Q68FF6 1-770)
chain: MSRKGPRAEVCADCSAPDPGWASISRGVLVCDECCSVHRSLGRHISIVKHLRHSAWPPTLLQMVHTLASNGANSIWEHSLLDPAQVQSGRRKANPQDKVHPIKSEFIRAKYQMLAFVHKLPCRDDDGVTAKDLSKQLHSSVRTGNLETCLRLLSLGAQANFFHPEKGTTPLHVAAKAGQTLQAELLVVYGADPGSPDVNGRTPIDYARQAGHHELAERLVECQYELTDRLAFYLCGRKPDHKNGHYIIPQMADRSRQKCMSQSLDLSELAKAAKKKLQALSNRLFEELAMDVYDEVDRRENDAVWLATQNHSTLVTERSAVPFLPVNPEYSATRNQGRQKLARFNAREFATLIIDILSEAKRRQQGKSLSSPTDNLELSARSQSELDDQHDYDSVASDEDTDQEPLPSAGATRNNRARSMDSSDLSDGAVTLQEYLELKKALATSEAKVQQLMKVNSSLSDELRRLQREIHKLQAENLQLRQPPGPVPPPSLPSERAEHTLMGPGGSTHRRDRQAFSMYEPGSALKPFGGTPGDELATRLQPFHSTELEDDAIYSVHVPAGLYRIRKGVSASSVPFTPSSPLLSCSQEGSRHASKLSRHGSGADSDYENTQSGDPLLGLEGKRFLELSKEDELHPELESLDGDLDPGLPSTEDVILKTEQVTKNIQELLRAAQEFKHDSFVPCSEKIHLAVTEMASLFPKRPALEPVRSSLRLLNASAYRLQSECRKTVPPEPGAPVDFQLLTQQVIQCAYDIAKAAKQLVTITTREKKQ
